Results taken from article PMC8450094.

Biological target: T1, SNM1B D275A (Homo sapiens) (UniProt Q9H816)
T1 sequence (looked up): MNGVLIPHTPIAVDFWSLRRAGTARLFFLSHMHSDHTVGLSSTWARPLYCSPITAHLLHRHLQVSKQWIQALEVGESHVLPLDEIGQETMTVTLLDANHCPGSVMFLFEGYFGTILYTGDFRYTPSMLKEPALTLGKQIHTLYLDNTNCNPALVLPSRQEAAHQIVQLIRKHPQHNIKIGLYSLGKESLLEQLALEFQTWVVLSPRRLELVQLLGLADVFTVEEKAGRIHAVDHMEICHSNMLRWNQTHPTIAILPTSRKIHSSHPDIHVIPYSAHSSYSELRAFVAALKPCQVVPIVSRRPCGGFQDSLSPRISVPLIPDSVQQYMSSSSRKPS
Assay: fluorescence polarisation
Details: apparent, curves do not saturate; 5' phosphate on strand 1; 5' OH on strand 2; FP: 20 mM HEPES pH 7.5, 50 mM KCl, 0.5 mM TCEP, room temperature, 5 min, DNA 25 nM (Methods) or 50 nM (legends; 10 nM in Suppl. Fig. 14C); recombinant protein; residues 1-335; protein details: C-terminal His10-FLAG, TEV cleavage stated; label: 3' FITC on strand 1

Sequence: ATAAATATTTTTTATTAATAATAGATCACCTTTCTTTCTCTTCTCCCCTT / ATTATTAATAAAAAATATTTAT [3' overhang DNA (oligo 20 / oligo 4)]
- Kd: 3.28 µM

For at least one entry, the source does not settle the construct or the ends of the probe. Where a protein sequence is shown, tags need not be part of it.
